In the supplement of paper PMC10849652 one finds log2 fold change data, which are given here for 32 targets.

Chains of the proteins cited; added tags and fusions are not shown. Lines headed by an entry give the natural chain unless they say otherwise; changes in a name come on top.
UniProt Q13885, whole entry, looked up: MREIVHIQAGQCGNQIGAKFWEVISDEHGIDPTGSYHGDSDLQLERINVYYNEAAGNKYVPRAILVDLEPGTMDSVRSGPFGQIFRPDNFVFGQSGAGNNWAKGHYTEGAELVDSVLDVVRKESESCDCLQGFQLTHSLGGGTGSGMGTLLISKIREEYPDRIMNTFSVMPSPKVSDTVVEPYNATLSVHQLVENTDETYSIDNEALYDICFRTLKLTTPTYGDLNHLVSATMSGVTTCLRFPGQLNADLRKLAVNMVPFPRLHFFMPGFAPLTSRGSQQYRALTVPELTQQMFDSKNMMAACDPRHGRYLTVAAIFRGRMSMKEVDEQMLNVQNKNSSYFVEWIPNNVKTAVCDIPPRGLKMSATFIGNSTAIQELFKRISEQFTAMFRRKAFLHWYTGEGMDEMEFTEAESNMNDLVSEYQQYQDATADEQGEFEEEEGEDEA
UniProt P51668: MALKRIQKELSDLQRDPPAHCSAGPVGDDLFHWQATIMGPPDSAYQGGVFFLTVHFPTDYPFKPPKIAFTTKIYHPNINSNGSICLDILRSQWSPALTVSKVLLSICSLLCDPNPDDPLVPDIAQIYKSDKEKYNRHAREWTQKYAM
UniProt Q9NPG3, whole entry, looked up: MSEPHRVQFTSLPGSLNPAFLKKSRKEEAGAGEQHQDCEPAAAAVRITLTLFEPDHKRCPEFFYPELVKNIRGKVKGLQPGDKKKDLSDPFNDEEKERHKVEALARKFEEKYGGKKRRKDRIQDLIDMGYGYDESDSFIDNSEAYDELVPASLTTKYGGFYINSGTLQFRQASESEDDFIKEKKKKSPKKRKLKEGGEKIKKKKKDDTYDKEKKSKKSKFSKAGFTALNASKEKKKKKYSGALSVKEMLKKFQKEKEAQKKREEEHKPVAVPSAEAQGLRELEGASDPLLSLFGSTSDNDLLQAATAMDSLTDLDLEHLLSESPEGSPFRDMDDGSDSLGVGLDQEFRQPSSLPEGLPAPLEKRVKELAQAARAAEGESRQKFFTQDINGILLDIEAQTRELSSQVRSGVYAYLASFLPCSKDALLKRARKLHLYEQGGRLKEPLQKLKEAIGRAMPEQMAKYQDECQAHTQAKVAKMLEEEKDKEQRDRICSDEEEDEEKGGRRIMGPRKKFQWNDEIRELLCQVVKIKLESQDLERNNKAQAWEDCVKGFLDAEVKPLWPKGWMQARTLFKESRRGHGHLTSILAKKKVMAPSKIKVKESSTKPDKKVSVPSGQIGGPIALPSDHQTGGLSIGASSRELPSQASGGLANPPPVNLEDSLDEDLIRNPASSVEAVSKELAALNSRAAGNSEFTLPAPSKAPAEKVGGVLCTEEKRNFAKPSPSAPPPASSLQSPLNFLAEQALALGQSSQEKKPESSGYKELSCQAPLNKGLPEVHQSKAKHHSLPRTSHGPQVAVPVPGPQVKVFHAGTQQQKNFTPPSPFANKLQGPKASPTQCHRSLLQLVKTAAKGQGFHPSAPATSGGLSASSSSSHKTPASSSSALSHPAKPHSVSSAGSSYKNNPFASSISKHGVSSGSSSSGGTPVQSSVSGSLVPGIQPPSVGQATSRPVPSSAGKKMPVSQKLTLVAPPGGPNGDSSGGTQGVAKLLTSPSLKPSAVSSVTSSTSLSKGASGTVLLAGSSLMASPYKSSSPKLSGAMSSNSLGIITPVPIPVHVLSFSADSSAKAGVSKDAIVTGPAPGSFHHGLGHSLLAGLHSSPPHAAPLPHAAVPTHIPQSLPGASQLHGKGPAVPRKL
UniProt P0DPH7, whole entry, looked up: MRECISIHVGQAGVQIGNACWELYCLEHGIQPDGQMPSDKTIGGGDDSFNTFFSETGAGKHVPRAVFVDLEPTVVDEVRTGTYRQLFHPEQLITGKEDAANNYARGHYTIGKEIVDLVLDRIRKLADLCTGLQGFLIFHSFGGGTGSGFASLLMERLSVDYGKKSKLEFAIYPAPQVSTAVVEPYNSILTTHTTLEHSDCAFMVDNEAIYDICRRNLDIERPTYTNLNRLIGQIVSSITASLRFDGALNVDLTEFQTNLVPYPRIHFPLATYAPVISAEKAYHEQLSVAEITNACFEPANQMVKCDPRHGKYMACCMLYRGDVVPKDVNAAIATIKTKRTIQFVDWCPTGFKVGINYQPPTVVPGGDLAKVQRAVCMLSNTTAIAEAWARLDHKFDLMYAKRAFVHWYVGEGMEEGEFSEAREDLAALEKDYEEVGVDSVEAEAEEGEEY
UniProt P60604: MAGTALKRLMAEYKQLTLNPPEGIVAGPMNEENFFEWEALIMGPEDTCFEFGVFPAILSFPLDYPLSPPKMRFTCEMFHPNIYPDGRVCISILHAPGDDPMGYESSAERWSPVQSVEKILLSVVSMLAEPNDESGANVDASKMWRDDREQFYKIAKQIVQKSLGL
UniProt Q9BRA2: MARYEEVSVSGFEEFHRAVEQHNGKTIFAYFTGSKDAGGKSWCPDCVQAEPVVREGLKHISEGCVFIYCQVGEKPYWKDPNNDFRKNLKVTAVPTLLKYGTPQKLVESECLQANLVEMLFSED
UniProt O94888: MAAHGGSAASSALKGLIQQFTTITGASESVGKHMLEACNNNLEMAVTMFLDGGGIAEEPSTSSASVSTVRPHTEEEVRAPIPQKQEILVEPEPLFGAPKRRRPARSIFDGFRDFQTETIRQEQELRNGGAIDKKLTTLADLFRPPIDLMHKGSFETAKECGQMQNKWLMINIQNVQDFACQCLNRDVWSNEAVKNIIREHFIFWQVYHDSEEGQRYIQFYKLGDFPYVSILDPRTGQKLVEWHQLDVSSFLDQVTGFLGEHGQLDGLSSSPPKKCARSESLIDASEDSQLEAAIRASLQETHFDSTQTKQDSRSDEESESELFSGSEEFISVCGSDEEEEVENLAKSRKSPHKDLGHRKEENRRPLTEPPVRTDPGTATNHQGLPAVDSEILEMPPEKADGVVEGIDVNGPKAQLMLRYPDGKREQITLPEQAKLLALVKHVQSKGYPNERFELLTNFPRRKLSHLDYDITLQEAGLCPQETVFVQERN
UniProt Q9GZZ9, whole entry, looked up: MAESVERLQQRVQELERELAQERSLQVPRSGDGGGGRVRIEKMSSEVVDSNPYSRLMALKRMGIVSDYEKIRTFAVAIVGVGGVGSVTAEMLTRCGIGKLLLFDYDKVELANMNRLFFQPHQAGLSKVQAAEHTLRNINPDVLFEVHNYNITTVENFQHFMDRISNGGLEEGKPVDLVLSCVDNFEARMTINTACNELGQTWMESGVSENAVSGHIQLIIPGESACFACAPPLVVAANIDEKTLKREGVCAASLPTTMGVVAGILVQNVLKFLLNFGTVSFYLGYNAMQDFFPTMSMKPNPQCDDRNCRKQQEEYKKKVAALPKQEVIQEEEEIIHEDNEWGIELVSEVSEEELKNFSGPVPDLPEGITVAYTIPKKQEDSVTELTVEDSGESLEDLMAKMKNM
UniProt Q969M7: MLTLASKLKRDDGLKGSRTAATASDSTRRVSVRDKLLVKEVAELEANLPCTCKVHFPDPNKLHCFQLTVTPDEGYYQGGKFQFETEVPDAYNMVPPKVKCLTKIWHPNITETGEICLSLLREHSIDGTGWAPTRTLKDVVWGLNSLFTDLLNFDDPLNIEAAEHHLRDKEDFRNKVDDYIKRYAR
UniProt Q9BZX2: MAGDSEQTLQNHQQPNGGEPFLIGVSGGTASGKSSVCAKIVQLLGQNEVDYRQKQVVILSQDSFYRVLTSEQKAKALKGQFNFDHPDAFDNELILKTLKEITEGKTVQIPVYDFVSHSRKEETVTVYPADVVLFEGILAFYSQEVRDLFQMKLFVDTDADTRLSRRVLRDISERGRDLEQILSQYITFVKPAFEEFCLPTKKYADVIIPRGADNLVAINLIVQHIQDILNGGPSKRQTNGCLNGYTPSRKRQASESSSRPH
UniProt Q05086: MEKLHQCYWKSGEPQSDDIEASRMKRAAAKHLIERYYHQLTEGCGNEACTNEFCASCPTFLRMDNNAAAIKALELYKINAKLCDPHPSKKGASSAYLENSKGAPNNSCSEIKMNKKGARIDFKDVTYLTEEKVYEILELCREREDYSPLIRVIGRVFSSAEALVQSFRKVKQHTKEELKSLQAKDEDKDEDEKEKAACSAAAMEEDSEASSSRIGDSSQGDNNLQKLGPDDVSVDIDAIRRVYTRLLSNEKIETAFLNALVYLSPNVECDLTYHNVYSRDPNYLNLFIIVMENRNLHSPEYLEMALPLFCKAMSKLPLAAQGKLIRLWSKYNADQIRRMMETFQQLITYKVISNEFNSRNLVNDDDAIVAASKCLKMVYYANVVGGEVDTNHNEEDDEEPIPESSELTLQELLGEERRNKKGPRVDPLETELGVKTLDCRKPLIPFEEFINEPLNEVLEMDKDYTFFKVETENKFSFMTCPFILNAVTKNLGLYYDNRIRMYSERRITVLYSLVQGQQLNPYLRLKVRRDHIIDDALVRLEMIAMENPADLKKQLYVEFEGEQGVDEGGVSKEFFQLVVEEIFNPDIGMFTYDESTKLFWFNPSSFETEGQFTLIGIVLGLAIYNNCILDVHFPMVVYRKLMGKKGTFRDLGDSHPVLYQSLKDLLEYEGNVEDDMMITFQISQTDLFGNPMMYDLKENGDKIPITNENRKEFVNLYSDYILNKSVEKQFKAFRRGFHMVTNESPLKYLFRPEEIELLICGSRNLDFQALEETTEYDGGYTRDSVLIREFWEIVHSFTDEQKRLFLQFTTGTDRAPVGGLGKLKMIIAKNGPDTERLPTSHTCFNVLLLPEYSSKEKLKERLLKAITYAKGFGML
UniProt Q969T4: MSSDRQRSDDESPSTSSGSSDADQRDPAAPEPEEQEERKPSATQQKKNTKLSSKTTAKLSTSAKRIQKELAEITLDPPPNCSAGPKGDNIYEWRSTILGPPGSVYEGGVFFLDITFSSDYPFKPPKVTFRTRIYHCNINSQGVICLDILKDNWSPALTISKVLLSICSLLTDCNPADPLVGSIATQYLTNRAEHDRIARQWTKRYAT
UniProt P61088: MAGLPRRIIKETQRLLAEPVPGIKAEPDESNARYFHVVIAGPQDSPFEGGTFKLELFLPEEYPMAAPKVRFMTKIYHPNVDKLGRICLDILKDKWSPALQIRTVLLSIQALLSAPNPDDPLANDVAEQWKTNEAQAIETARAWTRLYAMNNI
UniProt P68543: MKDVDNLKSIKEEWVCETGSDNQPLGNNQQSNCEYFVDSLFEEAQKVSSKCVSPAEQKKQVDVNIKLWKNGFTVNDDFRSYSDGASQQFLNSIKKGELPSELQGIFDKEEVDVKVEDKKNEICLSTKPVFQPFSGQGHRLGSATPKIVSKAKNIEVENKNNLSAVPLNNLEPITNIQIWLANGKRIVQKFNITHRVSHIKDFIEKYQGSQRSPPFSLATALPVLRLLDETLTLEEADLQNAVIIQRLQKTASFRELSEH
UniProt P61086: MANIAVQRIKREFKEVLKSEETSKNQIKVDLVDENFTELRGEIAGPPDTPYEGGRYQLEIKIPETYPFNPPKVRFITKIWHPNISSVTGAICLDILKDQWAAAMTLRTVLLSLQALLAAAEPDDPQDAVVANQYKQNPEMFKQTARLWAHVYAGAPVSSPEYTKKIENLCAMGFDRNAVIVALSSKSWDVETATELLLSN
UniProt P11441: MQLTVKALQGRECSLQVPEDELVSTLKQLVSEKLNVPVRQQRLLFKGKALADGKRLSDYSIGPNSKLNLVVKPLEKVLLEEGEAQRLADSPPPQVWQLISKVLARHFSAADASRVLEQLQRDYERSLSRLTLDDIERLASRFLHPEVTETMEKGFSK
UniProt Q9P2K2: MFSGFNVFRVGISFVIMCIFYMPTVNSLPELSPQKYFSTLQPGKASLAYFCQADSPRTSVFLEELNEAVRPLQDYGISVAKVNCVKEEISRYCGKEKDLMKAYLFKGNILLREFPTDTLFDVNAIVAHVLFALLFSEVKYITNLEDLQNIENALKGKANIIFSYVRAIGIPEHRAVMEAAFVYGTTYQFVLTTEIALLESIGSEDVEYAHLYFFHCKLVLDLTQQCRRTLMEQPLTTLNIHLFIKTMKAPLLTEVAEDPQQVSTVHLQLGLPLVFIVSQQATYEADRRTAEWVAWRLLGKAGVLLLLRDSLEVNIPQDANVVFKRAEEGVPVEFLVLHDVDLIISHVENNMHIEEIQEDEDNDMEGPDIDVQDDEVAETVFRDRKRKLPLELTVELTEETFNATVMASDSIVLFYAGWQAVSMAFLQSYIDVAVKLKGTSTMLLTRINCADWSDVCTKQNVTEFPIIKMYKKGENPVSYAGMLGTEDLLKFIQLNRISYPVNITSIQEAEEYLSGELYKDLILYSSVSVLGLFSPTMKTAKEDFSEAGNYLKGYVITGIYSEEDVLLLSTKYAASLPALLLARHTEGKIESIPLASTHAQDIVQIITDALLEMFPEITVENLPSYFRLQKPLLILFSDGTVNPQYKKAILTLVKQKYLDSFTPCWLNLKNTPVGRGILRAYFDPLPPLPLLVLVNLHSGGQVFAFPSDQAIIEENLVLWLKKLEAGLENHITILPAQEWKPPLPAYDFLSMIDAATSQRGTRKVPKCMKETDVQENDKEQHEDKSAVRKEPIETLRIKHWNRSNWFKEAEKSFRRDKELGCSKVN

The other results are listed elsewhere or left out.

Compound in this test: CCCS(=O)(=O)Nc1ccc(F)c(C(=O)c2c[nH]c3ncc(Cl)cc23)c1F
Nature of the test: log2 fold change, soluble protein after heating vs DMSO (PISA); higher = thermal stabilisation; K562 lysate, 10 uM; active = over 0.2 and 3.5 SD of the protein, either way, in both replicates (recomputed). In short, it runs like this:
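Quantification was by TMTpro 16plex LC-MS/MS with equalised channel sums, applied to the supernatant after 21,000xg for 90 min. Samples were crude K562 extract at 1 mg/mL protein in PBS pH 7.4 with 1 mM MgCl2, treated with 10 μM compound for 30 min, heated for 3 min across 48°C-58°C, pooled and brought to 0.5% NP-40 at 4°C. Values are log-two fold changes in thermal stability relative to solvent controls, from duplicates.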
Take TUBB2A (UniProt Q13885): the log2 fold change was inactive: 0.016. On to UBE2D1 (UniProt P51668), for which the log2 fold change is inactive: 0.022. Take TUBB4A (UniProt M0QYM7): the log2 fold change was inactive: -0.099. Then UBN1 (UniProt Q9NPG3), with inactive: -0.069; and TUBA3C (UniProt P0DPH7), with inactive: 0.021.

In the case of UBE2G2 (UniProt P60604), the log2 fold change is inactive: 0.047. Regarding UBE2I (UniProt H3BQQ9), the log2 fold change is inactive: 0.241. TXNDC17 (UniProt Q9BRA2): the log2 fold change was inactive: -0.029. Then UBE3B (UniProt Q7Z3V4), with inactive: -0.052; and UBXN7 (UniProt O94888), with inactive: 0.011.

Regarding UBA5 (UniProt Q9GZZ9), the log2 fold change is inactive: 0.007.

With UBE2F isoform 2 (UniProt Q969M7), the log2 fold change is inactive: 0.015. In the case of UCK2 (UniProt Q9BZX2) it was inactive: 0.011.

In the case of UBE3A (UniProt Q05086), the log2 fold change was inactive: 0.018. Then UBE2E3 (UniProt Q969T4), with inactive: -0.05; and UBIAD1 (UniProt Q9Y5Z9), with inactive: 0.043. In the case of U2AF2 (UniProt K7ELP8) it was inactive: -0.036; in that of UBQLN1 isoform 2 (UniProt Q9UMX0), inactive: 0.065; in that of UBE2N (UniProt P61088), inactive: -0.008. Then UBR4 isoform 4 (UniProt Q5T4S7), with inactive: -0.1. Regarding UBR4 (UniProt Q5T4S7), the log2 fold change is inactive: 0.016. Then UBXN2A (UniProt P68543), with inactive: 0.05; and TUFM (UniProt P49411), with inactive: 0.027.

For the target UBE2K (UniProt D6RDM7), the log2 fold change was inactive: -0.075.

Consider TUT1 (UniProt Q9H6E5), for which the log2 fold change was inactive: 0.056.

For the target TUBB6 (UniProt K7ES63), the log2 fold change is inactive: -0.027. Then UBE2K (UniProt P61086), with inactive: -0.023; and TXNRD2 (UniProt Q9NNW7), with inactive: 0.036. As to UBL4A (UniProt P11441), the log2 fold change was inactive: -0.001. As for U2AF1 isoform 2 (UniProt Q01081), the log2 fold change was inactive: 0.062.

With TXNDC16 (UniProt Q9P2K2), the log2 fold change is inactive: 0.21. For UBAP2L (UniProt F8W726), the log2 fold change was inactive: -0.031.
